PubChem BioAssay AID504786 | Drosophila RNAi Screening Center – 2011

Aim: 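Positive regulators of HIF-driven reporter output in Drosophila cells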 (primary screen)
Cell system: Drosophila S2 cells with a stable HIF luciferase reporter
Knock-down reagent: long dsRNA against Drosophila genes, about 0.2 µg dsRNA per well of a 384-well plate
Timing: three days of knock-down, then 20 h of DFO before reading
Challenge: desferrioxamine (DFO) at 100 µM, an iron chelator that mimics hypoxia, for 20 h
Measured: 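HIF reporter luminescence in cells given 100 µM DFO for 20 h, using the mouse ldh-a hypoxia-response element, scored as per-plate z-scores; higher means greater loss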
Scale: z-score: higher = stronger loss of HIF reporter signal
The deposit covers about 21,000 reagents; below is a random part of those with a known target gene and a result. 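Primary screen; positive scores mean lost reporter signal, so the sign may be inverted from the usual convention.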 A plus sign joins genes that one reagent is predicted to hit. Not all columns of the deposit are shown.

z-score, replicate 1, by target gene and reagent
Arp53D: DRSC05923 -0.2
CG30196: DRSC04156 -0.2
CG31562 (retired record): DRSC12273 -0.1; DRSC12274 -0.3
Mkp3: DRSC10084 -0.3; DRSC10085 -0.2
Lsp2: DRSC09841 -0.4; DRSC11216 -0.3
CG4267: DRSC00647 -0.4
KP78a + KP78b: DRSC16721 -0.3; DRSC16722 -0.3
Rtca: DRSC18517 -0.2
CG12239: DRSC17832 -0.5
PIG-O: DRSC06123 -0.2
CG14566: DRSC11727 -0.4
IFT54: DRSC15469 -0.4
CG34227: DRSC06788 -0.1; DRSC07034 -0.2
CG32548: DRSC19627 -0.3; DRSC19982 -0.4
CG6028: DRSC15951 -0.3
kel: DRSC03554 -0.1
CG13243: DRSC01920 -0.1
PGRP-LB: DRSC14926 0.3
Ir54a + sub: DRSC06459 -0.3
Frl: DRSC09300 -0.3; DRSC10027 -0.3; DRSC10716 -0.2
Mal-A2: DRSC07460 -0.3
CG34425: DRSC12210 -0.3
CG5726: DRSC06946 -0.3
CG14014: DRSC02345 -0.2
ric8b + ric8a: DRSC18104 -0.4
CR14117: DRSC10121 -0.3

Ordered by “z-score, replicate 1” (lowest first): 5 of the entries above.
target gene	dsRNA	z-score, replicate 1
IFT54	DRSC15469	-0.4
CG32548	DRSC19982	-0.4
CG32548	DRSC19627	-0.3
CG34227	DRSC07034	-0.2
CG34227	DRSC06788	-0.1
